Screen size: about 52,000 sequences; about 210 (0.4%) were called active.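 How the source made its calls: active means gene whose silencing raises cell survival under the drug, median off-target-corrected z-score across its silencing RNAs 2 or more; inactive means the rest.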 The list shows a part of the results.

The assay in a line: Resistance to Poly (ADP-Ribose) Polymerase inhibitor: Gene Identification via Genome-wide siRNA Screen. Particulars: mouse BRCA2 R2336H ES cells, olaparib, CellTiter-Glo viability; hits give high values. The method in brief: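 Genome-wide siRNA screen (3 siRNAs/gene, 20 nM) in mouse ES cells carrying hypomorphic BRCA2 R2336H; olaparib 500 nM added 48 h post-transfection, CellTiter-Glo viability 72 h later. Normalized to plate-median negative control; MAD z-scores, gene median, seed-adjusted.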
For the sequence “CCACCCGUUUUGUUGUACCTT against 4833418A01Rik”, the z-score is inactive: -0.022.
For “GGAUCUUGGAUAAAGUGUGTT against E130016I23Rik”, the z-score is inactive: 0.018.
Under “GGAAGAUGGGAACAGCACUTT against 2510004L01Rik” stands inactive: 0.903; under GGCAUCUAUAUCAUCAAAUTT against Pde6a, inactive: 0.761.
As to “GGACCUGCUCUUGGUCAUUTT against 3110048E14Rik”, the z-score is inactive: 2.31.
In the case of CCCUCUGCUCUAUGUGGUCTT against Olfr1040, the z-score was inactive: -0.482.
Turning to GCACUGACACUGUUUAUCGTT against Sync, the z-score was inactive: 0.861.
Under CCUUCACUAAGGGUAGCUGTT against LOC574418 stands inactive: -0.986; under “GGAAGUUUUGAUCACGAUUTT against 4930532D21Rik”, inactive: -0.569.
For GCUCCAGACGAUGGUUGAATT against Ppp1r1a the value was inactive: 0.17; for “GGUCUGUAUCCCACUUUUCTT against 6330580J24Rik”, inactive: 0.368.
Take GGCGGAAAAGCAAAUUGGUTT against Pit1: the z-score was inactive: -0.54.
For “CCAACAAGCCUAAUUAAAGTT against Gt(ROSA)26asSor”, the z-score is inactive: 2.59.
For “GGUCAUCUGAUAAAUGAGUTT against 4631423F02Rik”, the z-score was inactive: 0.917.
Take GGAAUCUAUGAACAUGUUUTT against Pcdh12: the z-score is inactive: 0.631.
Regarding GGCUCGAUUACUGAGUACATT against Bnip2, the z-score is inactive: 0.62.
For the sequence GGUUGUGUUGGAGGUUAAGTT against Snta1, the z-score is inactive: -0.839.
For GGUGAAAGCUUUGAUUCUGTT against Zbtb20 the value was inactive: 1.87; for “GGCUGUUAUCCAGAGAGAUTT against E130304F04Rik”, inactive: -0.592.
For GGUUGUCUCUCAGUAUUCATT against Cct4 the value was inactive: -2.48; for GGUUUCAUCAAAGUGCAUUTT against Rassf5, inactive: 0.63.
Consider GGACAUAGUGUGAUAUCUUTT against Man1c1, for which the z-score was inactive: -0.572.
Consider GGACAAGAAAAUGCUAUCATT against Pcsk1, for which the z-score was inactive: -2.45.
For the sequence GGAGCUCACCACAUCCCUATT against Rap2ip, the z-score was inactive: -0.956.
As for CCCGAGUAACUUUUAUAUCTT against Tdrd1, the z-score was inactive: 0.745.
On to GGAGAAAAAUCUAUUACCUTT against Tmem16d, for which the z-score is inactive: -1.38.
With GGAAAUACGGCUUCAUCUATT against Cyp26a1, the z-score was inactive: 0.936.
For GCAUUGUUUCUCUGGUAAUTT against Cd200, the z-score was inactive: 0.0487.
As for GGCUGUUAGAGGAAGAGAUTT against Ube3b, the z-score was inactive: -1.32.
In the case of GCAGAAUGGUAAAUCCGAUTT against Mc5r, the z-score was inactive: 1.96.
On to GGAAAUAACAGGCUUUUUGTT against Egfr, for which the z-score is inactive: 0.165.
Take GGUAGUGUUCAUUGAGGAATT against Oas1d: the z-score is inactive: -1.43.
Consider GGUUACAUUGCUCUCGUGCTT against V1re11, for which the z-score was inactive: -0.262.
Under “GGAUUCACACAGAGGUAAATT against 1700025J14Rik” stands inactive: -1.34; under GGCUAUUCUCAAGGUGUUATT against Olfr568, inactive: -0.478; under GCUAGAUGCUCGGAUCCAGTT against Ei24, inactive: 0.313.
On to “GGUGAUGCACUAUUAAGAATT against D230016N13Rik”, for which the z-score was inactive: 0.69.
In the case of CGUUUGAUACCAAAGAUUUTT against Onecut3, the z-score was inactive: 1.28.
On to GGUGAUAACUCCGGGCCAATT against ORF9, for which the z-score was inactive: -1.92.
CCUAAAAGGGUUUUUGCUUTT against H2afy2: the z-score was inactive: 2.25.
In the case of CCCUUUUUAAUCGUCCCACTT against D0H4S114, the z-score was inactive: -0.713.
For GAGUACCAGCUGUUGUUCATT against Olfr392 the value was inactive: -0.745; for GGCACAAGUCUCCUUGUAATT against Sybl1, inactive: 0.538.
As for CCAAGCCAAGCAAUCUUGATT against Chat, the z-score is inactive: 1.39.
Regarding GGAAAAGUUGAUUUCUCUATT against Olfr453, the z-score is inactive: -0.486.
Consider GGAAUUCUGCUUCAUGGAUTT against Cdc42ep4, for which the z-score was inactive: 0.343.
Under “GGUGCAAAGCACAGAUAUATT against 1110003E08Rik” stands inactive: 2.14.
Under “GGAAUGCUUUUGAGAUUCATT against E130307J04Rik” stands inactive: 0.1; under CCCUAAGUUCUCGUUUCUGTT against Cherp, inactive: 1.57.
Turning to CCAAAAAUGAAAUCACUGATT against Krt2-6g, the z-score was inactive: 0.754.
For the sequence GCAUGCUGACACUUACUUUTT against Olfr878, the z-score is inactive: 1.3.
On to GCUGAGCUCAGAACAUCUATT against Muc5b, for which the z-score was inactive: 0.625.
For the sequence GGACUUUCUCAAGGACAGATT against Wnt5a, the z-score was inactive: -2.32.
As for “GGCAAAGCUUAUGGAAAGCTT against 9130221H12Rik”, the z-score is inactive: 0.617.
As to GGUGUGCUAGAAGAUAUUATT against Actr10, the z-score is inactive: -0.731.
Take GGACUCCCUGGAUUUCAGATT against Rapgef3: the z-score was inactive: 0.836.
Under GCCAUAUGCUAUCAAGAUGTT against AW539964 stands inactive: 0.712.
For the sequence GGUCCUGCGCUUAUUUGAGTT against Pah, the z-score is inactive: -1.61.
Turning to CGCGGAGGUCUCUCUUAUUTT against Tesp1, the z-score was inactive: 1.04.
Under GGGUGCAUUUGAGAAGAUCTT against Cast1 stands inactive: 1.11; under GGAUGACAUGAGCAUCAGUTT against Fdft1, inactive: 1.27; under GGACUUCAGUGAGGAUCAATT against Sgne1, inactive: 0.389.
For CGAUUCCUUUGUAACGAAATT against Aldh5a1 the value was inactive: -0.197; for “GGAAUGUGCCUAAGUUUGGTT against 1110021H02Rik”, inactive: -2.55; for CCAGAAGCCAUUAACUAUGTT against Lck, inactive: 0.224.
With “GGUUGUGGAAGCAAGUAUGTT against C730048C13Rik”, the z-score is inactive: 1.29.
For “GCUUUCUUACCAAGAGUCATT against A030011M19”, the z-score is inactive: -0.26.
Consider GCAUGGUAUUAGGUUUUUUTT against Rab10, for which the z-score was inactive: 0.926.
As to GGUGGAUCCUGACAUGUUCTT against Wdr40b, the z-score was inactive: -1.71.
As to “CCUGUGGUGUUAAUAAGAUTT against 4732471D19Rik”, the z-score is inactive: -0.138.
In the case of GGCUUGUCCACUGAACCUUTT against Nol1, the z-score was inactive: -2.29.
As to GGAUCAGAAAUCAUCAAGCTT against Tsg-5, the z-score is inactive: 0.469.
As for GGUUAAAGAAGCCAUGAAATT against Olfr480, the z-score is inactive: 1.26.
With GGUUUUUCUCUUGUGAUUUTT against Vegfc, the z-score was inactive: 2.39.
Turning to “CCGUGGAAACAGUCCUGAATT against 4921532K09Rik”, the z-score is inactive: -0.827.
As for “GGAGCGAUUCACAAAUUACTT against 4932414K18Rik”, the z-score was inactive: 1.8.
On to GGAUGAGAAGAAAGAAGAUTT against Ars2, for which the z-score is inactive: -0.215.
On to GGCCUUUACGUCUUCCUAGTT against Zdhhc12, for which the z-score was inactive: -0.603.
For CGUUUGCACUACUCGUAACTT against Nrbf2 the value was inactive: 0.709; for CGAGAUCAGGCUACGUCGATT against BC025575, inactive: 0.422.
For the sequence GGAUGAAAGGCGGAUACUUTT against Etv4, the z-score was inactive: -1.73.
Take GGAUGUGAUCCUUUUUUGATT against Cml2: the z-score is inactive: -0.31.
Consider “GGGACUUAAGGUUAGACACTT against E330018D03Rik”, for which the z-score was inactive: 0.74.
Take GCACAUCAGUACAUUUCACTT against Centg2: the z-score was inactive: -0.488.
For GGGCUUCAUCAACUAUCUUTT against Spint1 the value was inactive: -0.516.
Turning to GAGAGCGGAGAGAUCAAAGTT against Iltifb, the z-score is inactive: 1.62.
For GGUGCUUCCAGAAUCUUUATT against Epha5 the value was inactive: -0.9; for CCUGGUGAUUAGUACUUUATT against Grpel1, inactive: -0.612.
With GGACCAAGAUUGGUUUCAGTT against Fbxo45, the z-score is inactive: 1.24.
Turning to GCUAUGUGGACGUGACCUATT against Chrnb4, the z-score is inactive: -1.95.
For GGACCUACGUGUAUGUGCUTT against Nudt3 the value was inactive: -0.364; for CCAAGAGAUGCUAGCUAAUTT against LOC434225, inactive: 0.44; for GGAUGACUAUUUCAGAAACTT against Spock1, inactive: 0.26.
For GGCUAGAAGAUAAAGAUGATT against Tmpo, the z-score is inactive: -0.823.
For GGUGAUGCCUGUGAAGACATT against Il3ra, the z-score is inactive: 0.406.
For the sequence GGAUUUGUUUUCACCAAGATT against Dmd, the z-score is inactive: -1.14.
As to CCCGAUUACUGGAGUUAAATT against Gm295, the z-score was inactive: 0.0418.
Under GGAAAAACAUCUCUUGCUUTT against Calcb stands inactive: -0.641.
Take GCUUAUAGAGGAGAACCGUTT against Thrb: the z-score is inactive: -0.457.
GGCGACAAGCAUUAUCAUCTT against Ablim1: the z-score was inactive: -0.0334.
Consider GGAUACUUCUCCAUUUUCUTT against C1r, for which the z-score is inactive: -0.36.
With GGACCAGCUCAGUCAAACATT against Slc39a4, the z-score is inactive: -0.888.
Turning to CGGAUUUUGAAGUACACCGTT against Alg8, the z-score is inactive: -0.197.
As for GCAAUGGAACUAUUAUUCATT against Cd28, the z-score is inactive: -0.649.

Source of the values: PubChem BioAssay AID1347423 (Functional Genomics Laboratory (NCATS/FGL), 2020).
